Measurements: PMC6557205, “Functional interplay between YY1 and CARM1 promotes oral carcinogenesis”
No constants are given. Whether binding was seen depends on the method and setting. Binding seen in cells or lysates may run through a third protein. Some results given as binding are weak or reduced against the parent protein; the word gives no strength. Sequences can lack the tags named with a protein.

By UniProt entry, the sequences of proteins in these tests, tags left out.
UniProt P25490: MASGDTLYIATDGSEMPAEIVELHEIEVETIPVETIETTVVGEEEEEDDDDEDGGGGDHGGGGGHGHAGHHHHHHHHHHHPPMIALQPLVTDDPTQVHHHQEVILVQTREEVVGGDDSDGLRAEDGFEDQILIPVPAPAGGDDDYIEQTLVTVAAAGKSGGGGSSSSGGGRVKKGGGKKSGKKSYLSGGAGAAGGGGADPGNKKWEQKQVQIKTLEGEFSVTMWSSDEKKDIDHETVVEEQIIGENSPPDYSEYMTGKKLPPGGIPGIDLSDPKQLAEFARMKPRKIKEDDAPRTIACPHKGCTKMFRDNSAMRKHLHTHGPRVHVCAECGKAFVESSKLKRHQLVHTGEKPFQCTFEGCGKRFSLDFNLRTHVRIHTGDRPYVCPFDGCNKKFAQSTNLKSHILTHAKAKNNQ

Biological target: T1, FLAG-CARM1 (UniProt Q86X55)
T1 sequence: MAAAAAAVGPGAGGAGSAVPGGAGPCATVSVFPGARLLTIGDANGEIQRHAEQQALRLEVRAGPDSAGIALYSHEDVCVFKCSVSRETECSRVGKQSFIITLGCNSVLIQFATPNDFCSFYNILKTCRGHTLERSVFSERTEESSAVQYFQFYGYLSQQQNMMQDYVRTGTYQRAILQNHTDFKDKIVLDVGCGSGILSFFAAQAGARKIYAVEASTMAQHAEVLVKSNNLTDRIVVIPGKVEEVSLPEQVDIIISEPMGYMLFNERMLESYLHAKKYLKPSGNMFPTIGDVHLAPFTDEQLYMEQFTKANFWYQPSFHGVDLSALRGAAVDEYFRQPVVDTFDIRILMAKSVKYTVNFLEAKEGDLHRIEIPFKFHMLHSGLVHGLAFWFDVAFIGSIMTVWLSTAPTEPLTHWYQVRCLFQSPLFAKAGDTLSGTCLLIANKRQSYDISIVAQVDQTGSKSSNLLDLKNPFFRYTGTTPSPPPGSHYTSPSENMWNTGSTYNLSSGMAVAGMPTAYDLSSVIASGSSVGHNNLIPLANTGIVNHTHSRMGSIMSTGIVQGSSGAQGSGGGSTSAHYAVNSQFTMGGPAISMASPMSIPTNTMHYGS
Test: co-IP; HEK293T cells co-transfected with pcDNA3-HA-YY1 and pCMV-FLAG-CARM1; lysate (50 mM Tris-Cl pH 7.4, 150 mM NaCl, 1 mM EDTA, 1% Triton-X 100) incubated with M2 agarose beads 6 h at 4 C; eluted with FLAG peptide; immunoblot with HA and FLAG tag-specific antibodies

binding: binds
Substance: HA-YY1 (from UniProt P25490 1-414)
